Experimental data published in patent publication US20200190168A1.
No constants are given. Whether binding was seen depends on the method and setting. Some entries that bind do so weakly or less than the wild type.

Protein sequences, listed by entry. Tags and fused reporters are not part of them. Lines headed by an entry give the natural chain unless they say otherwise; changes in a name come on top. Residues count along the entry.
UniProt P20023, residues 21-153: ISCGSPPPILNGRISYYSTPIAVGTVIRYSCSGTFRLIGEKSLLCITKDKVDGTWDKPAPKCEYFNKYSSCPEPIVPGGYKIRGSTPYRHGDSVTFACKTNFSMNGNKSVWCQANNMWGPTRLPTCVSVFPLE
UniProt P03200: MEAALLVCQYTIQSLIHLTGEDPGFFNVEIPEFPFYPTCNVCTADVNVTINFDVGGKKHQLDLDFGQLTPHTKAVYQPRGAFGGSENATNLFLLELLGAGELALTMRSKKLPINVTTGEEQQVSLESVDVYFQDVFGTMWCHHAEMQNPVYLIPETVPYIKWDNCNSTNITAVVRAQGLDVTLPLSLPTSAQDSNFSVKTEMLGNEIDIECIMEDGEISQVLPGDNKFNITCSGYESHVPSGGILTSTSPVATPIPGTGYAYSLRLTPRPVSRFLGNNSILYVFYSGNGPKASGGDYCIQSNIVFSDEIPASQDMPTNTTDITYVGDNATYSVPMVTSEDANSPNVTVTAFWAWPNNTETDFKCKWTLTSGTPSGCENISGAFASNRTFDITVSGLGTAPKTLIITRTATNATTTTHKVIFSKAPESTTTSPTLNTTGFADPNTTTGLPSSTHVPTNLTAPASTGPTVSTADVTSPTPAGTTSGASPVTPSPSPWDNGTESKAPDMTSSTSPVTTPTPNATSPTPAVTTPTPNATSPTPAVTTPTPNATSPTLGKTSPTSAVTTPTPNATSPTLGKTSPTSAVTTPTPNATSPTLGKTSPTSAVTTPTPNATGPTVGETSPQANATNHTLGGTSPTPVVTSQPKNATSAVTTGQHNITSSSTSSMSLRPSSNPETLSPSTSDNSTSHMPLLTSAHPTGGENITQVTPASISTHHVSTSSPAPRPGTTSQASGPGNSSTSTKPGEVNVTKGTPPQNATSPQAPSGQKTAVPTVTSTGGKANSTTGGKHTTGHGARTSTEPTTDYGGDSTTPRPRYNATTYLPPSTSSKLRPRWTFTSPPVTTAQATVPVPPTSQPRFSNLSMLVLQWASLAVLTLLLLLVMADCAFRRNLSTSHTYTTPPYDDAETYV

Molecular target: CR2 (UniProt P20023)
Experiment: structure of the complex

EBV gp350 protein (GenBank: AIM62208.1) (from UniProt P03200 2-425) (ligand)
binding: binds
